In publication doi:10.64898/2025.12.28.696746 one finds binding data, which are given here for two substances.

No constants are given. Whether binding was seen depends on the method and setting.

The target in the test is T1, Bdf1 (S. pombe) (UniProt Q9Y7N0).
T1 sequence: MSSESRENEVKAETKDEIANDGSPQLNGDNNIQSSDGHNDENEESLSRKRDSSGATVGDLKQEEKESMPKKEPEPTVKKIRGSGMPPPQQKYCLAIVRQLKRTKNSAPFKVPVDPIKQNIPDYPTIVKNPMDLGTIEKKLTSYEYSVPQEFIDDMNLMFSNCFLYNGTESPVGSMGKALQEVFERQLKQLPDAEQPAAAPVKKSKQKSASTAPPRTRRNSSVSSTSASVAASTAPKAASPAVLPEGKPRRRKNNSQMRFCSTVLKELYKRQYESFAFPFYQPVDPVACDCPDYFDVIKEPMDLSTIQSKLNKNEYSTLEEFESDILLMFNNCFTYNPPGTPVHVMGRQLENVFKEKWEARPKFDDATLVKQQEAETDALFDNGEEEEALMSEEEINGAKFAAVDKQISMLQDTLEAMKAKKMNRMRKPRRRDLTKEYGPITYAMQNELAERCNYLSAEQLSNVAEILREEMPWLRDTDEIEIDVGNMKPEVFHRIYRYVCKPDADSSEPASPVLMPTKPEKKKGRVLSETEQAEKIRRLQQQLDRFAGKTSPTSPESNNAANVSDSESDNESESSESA
The experiment in a line: two-hybrid; Matchmaker Gold Yeast Two-Hybrid System (Clontech); bait and prey co-expressed, selected on SD/-Leu/-Trp, spotted on SD/-Leu/-Trp/-His/-Ade (HIS3 and ADE2 reporters), 30°C, 2-4 days.

For the substance “C-terminal fragment of Tdk203 (Tdk203C, 214–342) (S. cryophilus) (domain or fragment)”, the binding result was “no binding”.

Consider “C-terminal fragment of Tdk210 (Tdk210C, 104–234) (S. cryophilus) (domain or fragment)”, for which the binding result is recorded as “no binding”.
